## Cleaved PARP in drug-treated melanoma cells

Values as published with doi:10.1371/journal.pone.0140310, rounded.

First drug in all entries: dasatinib, 20 nM, Cc1nc(Nc2ncc(C(=O)Nc3c(C)cccc3Cl)s2)cc(N2CCN(CCO)CC2)n1

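Human melanoma cells were exposed to two drugs together for 72 h in 1,536-well plates and read by automated microscopy after fixing and staining. The read-out is the fraction of cleaved-PARP-positive nuclei, in % of that fraction in the DMSO control; 200 means twice the control level of this apoptosis marker. Every drug was used at one fixed concentration, the higher of two screened. The file gives one value for each pair and line, without errors, so small differences may be noise. Basal and induced levels differ widely between cell lines.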 This is part of the screen, not chosen by result.

Second drug,A2058,UACC-62,COLO 792,RPMI-7951,IPC-298,SK-MEL-28
CC(C)C[C@H](NC(=O)[C@H](Cc1ccccc1)NC(=O)c1cnccn1)B(O)O at 5 nM,1730,265,864,385,2720,280
C=C(c1ccc(C(=O)O)cc1)c1cc2c(cc1C)C(C)(C)CCC2(C)C at 10000 nM,315,256,236,430,130,213
NC(=O)Nc1cc(-c2cccc(F)c2)sc1C(=O)N[C@H]1CCCNC1 at 100 nM,541,302,775,726,62.9,276
Cc1cc(Nc2cc(N3CCN(C)CC3)nc(/C=C/c3ccccc3)n2)n[nH]1 at 200 nM,226,66.7,87.9,116,72.7,59.6
Cn1cc(/C=C2\C(=O)Nc3cccnc32)c2ccccc21 at 2000 nM,194,95.4,218,547,142,83.9
O=C(O)c1ccc(-c2c[nH]c3ncc(-c4ccccc4)cc23)cc1C1CCCC1 at 800 nM,219,125,245,182,97.8,124
CN1CCN(c2ccc3nc(-c4c(N)c5c(F)cccc5[nH]c4=O)[nH]c3c2)CC1 at 500 nM,788,258,502,264,127,117
C[C@]1(O)C[C@@H](c2nc(-c3ccc4ccc(-c5ccccc5)nc4c3)c3c(N)nccn32)C1 at 2000 nM,326,303,112,322,60.2,137
O=S(=O)(c1ccccc1)N(CC(F)(F)F)c1ccc(C(O)(C(F)(F)F)C(F)(F)F)cc1 at 7000 nM,279,400,326,179,131,291
Nc1nc(F)nc2c1ncn2[C@@H]1O[C@H](CO)[C@@H](O)[C@@H]1O at 1000 nM,353,227,377,352,66.5,3630
CCCCCCCCCCCCCCCCCCOP(=O)([O-])OC1CC[N+](C)(C)CC1 at 2000 nM,233,115,69.7,1950,49.4,155
Cn1nnc2c(C(N)=O)ncn2c1=O at 10000 nM,644,280,265,501,103,406
Cc1cc(SCc2sc(-c3ccc(C(F)(F)F)c(F)c3)nc2C)ccc1OCC(=O)O at 10000 nM,195,62.1,83.2,138,88.5,227
CCN(CC)CCNC(=O)c1c(C)[nH]c(/C=C2\C(=O)Nc3ccc(F)cc32)c1C at 2000 nM,293,230,374,195,89.7,51.4
N#CC[C@H](C1CCCC1)n1cc(-c2ncnc3[nH]ccc23)cn1 at 5000 nM,788,203,135,272,115,43.9